Results taken from PubChem BioAssay AID540276 (National Center for Advancing Translational Sciences (NCATS), 2011).
Where “and” joins values, the source holds several entries; their conditions need not be identical. Identical values can stand only once. Out of some 300,000 compounds screened, about 5,400 (1.8%) were called active. Inconclusive results, whose numbers are uncertain, are shown with a selection of clear calls. Calls follow the shape of the full dose curve; tested in HEK293 cells. Where the call is inconclusive, the potency comes from a doubtful curve fit.
% is scaled to controls: 0 for no effect and ±100 for the full control effect; potency is read from the fitted curve at half-maximal effect.

Test: qHTS for inhibitors of binding or entry into cells for Marburg Virus
Conditions: Marburg virus pseudotyped entry inhibition, cell reporter; activity change, negative = inhibition: at 37.8 µM (top of the series) unless noted
In the case of `COc1ccc(Cn2c(=S)[nH]c3cc(OC)c(OC)cc3c2=O)cc1`, the Potency was inconclusive: 4.47 µM [inhibitor, single point]. For `Cc1ccc(CS(=O)(=O)c2ccc(C(=O)N3CCCCC3)cc2[N+](=O)[O-])cc1`, the Potency was inconclusive: 25.1 µM [inhibitor, single point]. For `CCC1CCCCN1S(=O)(=O)c1ccc(NC(=O)c2nc(SC)ncc2Cl)cc1` (stereo not drawn), the Potency was inconclusive: 5.62 µM [inhibitor, partial curve, poor fit]. With `COc1ccc(CCc2nc(C)ccc2O)cc1` the Potency was “inactive”. In the case of `CS/C(=N\S(=O)(=O)c1cccs1)NC(=O)CSc1nc2ccccc2s1`, the Potency was “inactive and inconclusive: 5.62 µM [activator, single point]”. For `CCc1ccc(N=CC23c4ccccc4C(c4ccccc42)C2C(=O)N(c4ccc(OC)cc4)C(=O)C23)cc1` (stereo not drawn), the Potency was inconclusive: 1.3 µM [inhibitor, full curve, poor fit]. In the case of `CC(C)OC(=O)CSc1nnc(-c2ccc(C(C)(C)C)cc2)n1N`, the Potency was inconclusive: 23.1 µM [activator, partial curve]. In the case of `O=C(CNc1ccc2c(c1)OCO2)N/N=C\c1cn(Cc2ccc(F)cc2)c2ccccc12`, the Potency was inconclusive: 8.2 µM [inhibitor, partial curve, poor fit]. With `Cc1ccc(C(=O)C2CCN(CC(=O)N3CCN(c4ccc(F)cc4)CC3)CC2)cc1` the Potency was inconclusive: 1.41 µM [inhibitor, partial curve, poor fit]. With `COc1cc(OC)c(CN2CCc3c([nH]c4ccccc34)C2)cc1Br` the Potency was inconclusive: 20 µM [inhibitor, partial curve, poor fit]. With `O=C(CSc1nnnn1C1CC2CCC1C2)Nc1ccnc2ccccc12` (stereo not drawn) the Potency was inconclusive: 0.708 µM [inhibitor, full curve, poor fit]. In the case of `NC(N)=NC1=NC(=O)/C(=C/c2ccccc2-n2cccn2)S1`, the Potency was inconclusive: 15.8 µM [inhibitor, single point]. In the case of `CCOc1ccc(S(=O)(=O)NCCC(=O)Nc2cccc(C(=O)OC)c2)cc1`, the Potency was inconclusive: 6.31 µM [activator, single point]. In the case of `CCOC(=O)N1CCN(C(=O)c2ccc3nc(N4CCC(C)CC4)sc3c2)CC1`, the Potency was “inactive”. In the case of `CCc1nc(C)c(C(=O)N2CCCC(C(=O)Nc3cccc(-c4cccc(C)c4)c3)C2)o1` (stereo not drawn), the Potency was inconclusive: 35.5 µM [inhibitor, single point]. With `CNc1snc(C)c1C(=O)OC(C)C(=O)Nc1cccc(C)c1` (stereo not drawn) the Potency was inconclusive: 0.631 µM [inhibitor, full curve, poor fit]. With `CC(=NCCc1ccccc1)c1c(O)n(C)c(=O)n(C)c1=O` the Potency was “inactive”. In the case of `Cc1cccc(C)c1NC(=O)CNC(=O)C12CC3CC(CC(O)(C3)C1)C2`, the Potency was inconclusive: 35.5 µM [activator, single point]. With `CCN(CC(=O)Nc1ccc(OC)cc1)C(=O)c1oc2c(Cl)cccc2c1C` the Potency was inconclusive: 35.5 µM [inhibitor, single point]. In the case of `CCc1nnc(NS(=O)(=O)c2ccc(N=Cc3c(C)[nH]n(-c4cccc(Cl)c4)c3=O)cc2)s1`, the Potency was inconclusive: 35.5 µM [activator, single point]. For `Cc1cc(N/N=C/c2ccc(O)cc2O)nc(-n2nc(C)cc2C)n1`, the Potency was active: 3.66 µM. For `Cn1c2ccccc2c2cnn(CC(=O)O)c(=O)c21`, the Potency was “inactive”. For `CC(C)CN(C)C(=O)CCc1nnc(Cc2cccc(C(F)(F)F)c2)o1`, the Potency was “inactive”. With `C(=C\c1nc2ccccc2[nH]1)/c1ccccc1` the Potency was inconclusive: 0.92 µM [inhibitor, full curve, poor fit]. With `Cc1ccc(C(=O)N2c3ncnn3C3(CCCCC3)[C@@H]3CCCC[C@@H]32)cc1` the Potency was inconclusive: 35.5 µM [inhibitor, partial curve, poor fit]. For `CC(=C\c1ccccc1)/C=C1/SC(=S)N(CCCC(=O)O)C1=O`, the Potency was inconclusive: 35.5 µM [inhibitor, single point]. For `O=S(=O)(c1ccccc1)N1N=C(c2cccs2)CC1c1ccc(Br)cc1` (stereo not drawn), the Potency was inconclusive: 14.1 µM [inhibitor, single point]. With `Cc1ccc[n+](C(C)C(=O)c2ccc(-c3ccccc3)cc2)c1` (stereo not drawn) the Potency was inconclusive: 17.8 µM [inhibitor, single point]. For `CCN1C(=O)C(CC(=O)Nc2ccc(OC)cc2)N(CCc2ccccc2)C1=S` (stereo not drawn), the Potency was inconclusive: 35.5 µM [inhibitor, single point]. In the case of `CCOC(=O)c1ccc(N/C=C2/CCCC(C)C2=O)cc1` (stereo not drawn), the Potency was inconclusive: 1.78 µM [activator, partial curve, poor fit]. With `COc1ccc(NC(=O)CC2C(=O)N(c3ccc(OC)cc3)C(=O)N2C2CCCCC2)cc1` (stereo not drawn) the Potency was “inactive”. For `CCCN(CCC)CCCNC(=O)c1cc2c(=O)n(CC)c3ccccc3c2s1`, the Potency was active: 10 µM. In the case of `O=C(CCc1nnc(C2CCCCC2)o1)N1CCN(C2CCCCC2)CC1`, the Potency was “inactive”. For `COc1ccc(NC(=O)C2CC(=O)N(Cc3ccc(C)cc3)C2)cc1S(=O)(=O)N1CCCCC1` (stereo not drawn), the Potency was inconclusive: 5.01 µM [inhibitor, partial curve]. In the case of `O=C(Nc1ccc2c(c1)OCO2)C1CCN(C(=O)c2ccc(Cl)cc2)CC1`, the Potency was “inactive”. For `Cc1cccc(Nc2c3c(nc4ccccc24)CCC3)c1`, the Potency was active: 11.2 µM. In the case of `Cc1ccccc1CSCCC(=O)NCCC1=CCCCC1`, the Potency was inconclusive: 3.26 µM [activator, partial curve, poor fit]. For `CC(C)(C)c1ccc(OCC(=O)Nc2ccc(C(=O)Nc3ccccc3C(=O)O)cc2)cc1`, the Potency was inconclusive: 1.58 µM [inhibitor, full curve, poor fit]. With `COc1ccc(NC(=O)c2ccc3snnc3c2)cc1` the Potency was “inactive”. In the case of `CC(C)[N+](C)(CCOC(=O)C1c2ccccc2Oc2ccccc21)C(C)C`, the Potency was inconclusive: 5.01 µM [inhibitor, full curve]. For `N#CCC(=O)Nc1ccc(C(=O)OC(C(=O)Nc2cc(C(F)(F)F)ccc2Cl)c2ccccc2)cc1` (stereo not drawn), the Potency was inconclusive: 35.5 µM [inhibitor, single point]. For `CC(C)Cc1nc2oc3c(NCCCN4CCOCC4)ncnc3c2c2c1CCC2`, the Potency was inconclusive: 20.6 µM [inhibitor, partial curve, poor fit]. In the case of `Cc1ccccc1NS(=O)(=O)c1cccc(-c2nnc(-c3ccccc3)o2)c1`, the Potency was “inactive”. In the case of `CCOC(=O)c1ccc2nc(NC(C)=O)sc2c1`, the Potency was inconclusive: 14.1 µM [inhibitor, single point]. For `O=C(Nc1ccc(S(=O)(=O)N2CCCC2)cc1)c1ccc(Br)o1`, the Potency was “inactive”. With `CN1CCC(NC(=O)CCc2ccccc2)CC1` the activity change, negative = inhibition was inconclusive: 1.74% [activator]. For `O=C(NCc1ccco1)c1ccc(Cn2c(=O)c3ccccc3n(Cc3ccc(Cl)cc3)c2=O)cc1`, the Potency was “inactive”. For `O=C(CN1C2=NCCCN2c2ccccc21)c1ccc(Cl)cc1Cl`, the Potency was inconclusive: 28.2 µM [inhibitor, single point]. In the case of `O=S(=O)(c1ccc(Cl)c(NC(=S)N/N=C/c2ccc(O)cc2)c1)N1CCOCC1`, the Potency was inconclusive: 2.82 µM [inhibitor, partial curve, poor fit]. With `Cc1ccc(NC(=O)c2c(C)oc3ccc(O)c(CN4CCCCC4)c23)cc1` the Potency was inconclusive: 7.94 µM [inhibitor, partial curve, poor fit]. For `Cn1c(C(=O)N2CCCC(C(=O)NCCCSC3CCCCC3)C2)cc2sccc21` (stereo not drawn), the Potency was inconclusive: 2.82 µM [activator, single point]. For `CCOC(=O)C1C(=O)C=C(c2ccc(Br)cc2)CC1c1ccco1` (stereo not drawn), the Potency was inconclusive: 18.3 µM [inhibitor, partial curve, poor fit]. For `COC(=O)CCC(=O)N1CCCC(C(=O)c2cc(F)ccc2F)C1` (stereo not drawn), the Potency was “inactive”. With `O=C(Cn1nnc(-c2ccccc2)n1)N1CCN(c2ccc(F)cc2)CC1` the Potency was inconclusive: 5.62 µM [inhibitor, single point]. For `COc1cccc(-c2nnc(-c3ccccc3NC(=O)c3ccc(C(C)(C)C)cc3)o2)c1`, the Potency was inconclusive: 12.6 µM [activator, partial curve]. For `CCC(C)c1ccc2oc(-c3ccc(NC(=O)Cn4cnc5c(=O)n(C)c(=O)n(C)c54)cc3)nc2c1` (stereo not drawn), the Potency was inconclusive: 18.3 µM [inhibitor, single point]. For `O=C(NC1CC1)c1ccc2c(c1)ncn2C1CCCC1`, the Potency was “inactive”. With `OCCNc1ncnc2c1c(-c1ccccc1)c(-c1ccccc1)n2Cc1ccco1` the Potency was inconclusive: 20 µM [inhibitor, partial curve, poor fit]. For `Cc1sc2ncnc(SC(C)C(=O)N3c4ccccc4Sc4ccccc43)c2c1C` (stereo not drawn), the Potency was active: 11.2 µM. In the case of `C=CCSc1n[nH]c(-c2ccccc2)n1`, the activity change, negative = inhibition was inconclusive: 34% [activator]. For `O=C(c1cc2c(s1)-c1ccccc1OC2)N1CCc2ccccc2C1`, the Potency was “inactive”. With `O=C(COC(=O)/C=C/c1cccc(C(F)(F)F)c1)NCc1ccccc1` the Potency was inconclusive: 8.91 µM [activator, partial curve]. In the case of `O=C(Nc1ccc(Cl)cc1)N1N=CCC1c1ccccc1` (stereo not drawn), the Potency was “inactive”. With `COc1ccc(-n2c(SCC(=O)Nc3cc(C)cc(C)c3)nc3c(oc4ccccc43)c2=O)cc1` the Potency was “inactive”. With `O=C(Oc1ccc2ccc(=O)oc2c1)N1CCOCC1` the Potency was “inactive”. In the case of `CCOc1ccc(-n2c(C)cc(/C=N/NC(=O)C(N)=O)c2C)cc1`, the Potency was “inactive”. In the case of `CN(C)S(=O)(=O)c1cccc(C(=O)Nc2ccc(C(=O)Nc3cccc(S(N)(=O)=O)c3)cc2)c1`, the Potency was “inactive”. With `COc1ccccc1NC(=O)C1Cc2ccccc2CN1C(=O)c1ccco1` (stereo not drawn) the Potency was inconclusive: 6.31 µM [inhibitor, partial curve, poor fit].
